Patent US11726083B2, “Method for testing drug response of cardiomyocytes” (Myoridge Co. Ltd., priority 2017, dated 2023)

Tested on: cardiomyocytes prepared by inducing differentiation of a human iPS cell line (253G1)

Cc1cccc(CCN2CCC(C(=O)c3ccc(NS(C)(=O)=O)cc3)CC2)n1 [E-4031]
detected: expected drug response | expected drug response (EAD arrhythmia) | expected drug response (prolongation of the duration of the Ca^2+ waveform or EAD arrhythmia)
